Measurements reported in PubChem BioAssay AID686937 (Drosophila RNAi Screening Center, 2013).
The deposit covers about 23,000 reagents; this is an unselected part of those with a known target gene and a result. 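Reduced-secretion tags in replicate 1 do not always agree with the z-scores; no criterion for assigning the tags was given.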 Reagents against one gene are numbered here. Not all columns of the deposit are shown. The record does not give: the amount of reagent.

- Test: 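Genes in the fly needed for secretion of protein constitutively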 (primary screen)
- System: Drosophila S2 cells expressing secreted horseradish peroxidase
- Reagents: long dsRNA against Drosophila genes
- Time to read-out: about 5.5 days (5 days dsRNA, then 12 h reporter induction)
- Treatment: reporter expression induced after 5 days of dsRNA, read 12 h later; inducer not stated
- Read-out: 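After 5 days of dsRNA and 12 h of reporter induction, medium peroxidase read by chemiluminescence and scored as per-plate z-score; higher values mean more reporter released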
- Scale: z-score: higher = more reporter secreted into medium

| target | reagent | z-score, replicate 1 | z-score, replicate 2 |
| --- | --- | --- | --- |
| CG16903 (GeneID 31178) | 1 | -2.34 | -1.7 |
| CG15715 (GeneID 39726) | 1 | 0.08 | 0.13 |
| CG12853 (GeneID 50220) | 1 | 0.27 | 0.4 |
| CG13700 (GeneID 40013) | 1 | -0.02 | 0.14 |
| Ddc (GeneID 35190) | 1 | 0.1 | 0.45 |
| Cyp18a1 (GeneID 32858) | 1 | 0.3 | 0.3 |
| Rnb (GeneID 43513) | 1 | 0.17 | 0.31 |
| Adgf-C (GeneID 41680) | 1 | 0.15 | -0.07 |
| CG11961 (GeneID 37221) | 1 | 0.38 | 0.13 |
| Drsl5 (GeneID 38409) | 1 | 0.06 | 0.17 |
| CG13678 (GeneID 38922) | 1 | 0.68 | 0.56 |
| Doa (GeneID 43415) | 1 | -0.24 | -0.94 |
| Doa (GeneID 43415) | 2 | 0.15 | -0.47 |
| Doa (GeneID 43415) | 3 | 0.33 | 0.38 |
| Doa (GeneID 43415) | 4 | 0.19 | 0.19 |
| Doa (GeneID 43415) | 5 | 0.51 | 0.39 |
| Doa (GeneID 43415) | 6 | -1.85 | -1.1 |
| CRMP (GeneID 40675) | 1 | -0.91 | -0.07 |
| CRMP (GeneID 40675) | 2 | 0.24 | -0.03 |
| ort (GeneID 45910) | 1 | 0.4 | 0.42 |
| CG34425 (GeneID 5740837) | 1 | 0.35 | 0.43 |
| CG34425 (GeneID 5740837) | 2 | -0.48 | 0.48 |
| Cpr49Ae (GeneID 36351) | 1 | 0.12 | -0.66 |
| CG13365 (GeneID 31005) | 1 | 0.33 | 0.13 |
| Dyb (GeneID 36362) | 1 | 0.19 | 0.44 |
| Dyb (GeneID 36362) | 2 | 0.17 | 0.46 |
| Br140 (GeneID 35648) | 1 | -0.09 | -0.24 |
| ValRS (GeneID 45783) | 1 | -0.22 | -0.17 |
| JMJD5 (GeneID 38097) | 1 | 0.22 | 0.09 |
| CG17855 (GeneID 34269) | 1 | -0.17 | 0.4 |
| CG18404 (GeneID 43603) | 1 | -2.4 | -1.11 |
| Dscam1 (GeneID 35652) | 1 | -0.07 | – |
| Dscam1 (GeneID 35652) | 2 | -1.08 | – |
| Dscam1 (GeneID 35652) | 3 | 0.18 | 0.33 |
| Dscam1 (GeneID 35652) | 4 | -0.03 | -0.5 |
| Dscam1 (GeneID 35652) | 5 | 0.19 | 0.41 |
| Trf4-1 (GeneID 31795) | 1 | 0.39 | 0.68 |
| CG32767 (GeneID 31430) | 1 | -0.13 | -1.23 |
| grn (GeneID 40962) | 1 | -3.56 | -2.74 |
| grn (GeneID 40962) | 2 | 0.33 | 0.62 |
| ProRS-m (GeneID 38331) | 1 | 0.38 | 0.22 |
| CG14627 (GeneID 31063) | 1 | 0.31 | 0.16 |
| Ptip (GeneID 39552) | 1 | 0.12 | 0.34 |
| Ptip (GeneID 39552) | 2 | -0.64 | -0.35 |
| mtSSB (GeneID 41968) | 1 | 0.32 | 0.45 |
| vg (GeneID 36421) | 1 | 0.4 | 0.59 |
| vg (GeneID 36421) | 2 | -0.74 | 0.3 |
| CG13001 (GeneID 32684) | 1 | 0.31 | 0.19 |
| CG13001 (GeneID 32684) | 2 | 0.21 | -0.13 |
| Mst98Cb (GeneID 43367) | 1 | 0.08 | 0.45 |
| Mst98Cb (GeneID 43367) | 2 | 0.19 | -0.24 |
| CG30432 (GeneID 246611) | 1 | -0.47 | – |
| mRpL32 (GeneID 43698) | 1 | -0.48 | -1.34 |
| Arpc5 (GeneID 33444) | 1 | -1.03 | -1.44 |
| CG6675 (GeneID 35439) | 1 | -0.08 | 0.18 |
| Cyp4p3 (GeneID 35948) | 1 | -0.03 | 0.3 |
| PLCXD (GeneID 34623) | 1 | 0.09 | 0.36 |
| AOX3 (GeneID 41896) | 1 | 0.34 | 0.18 |
| Oseg4 (GeneID 38219) | 1 | 0.12 | 0.54 |
| Gr36a (GeneID 117488) | 1 | -0.87 | 0.26 |
| CG13917 (GeneID 38186) | 1 | 0.29 | 0.24 |
| Rad17 (GeneID 41779) | 1 | 0.1 | 0.04 |
| CG3355 (GeneID 33667) | 1 | 0.31 | 0.07 |
| CG14535 (GeneID 34073) | 1 | 0.18 | 0.35 |
| ome (GeneID 44297) | 1 | -0.07 | 0.14 |
| ome (GeneID 44297) | 2 | -0.23 | 0.25 |
| ome (GeneID 44297) | 3 | 0.17 | 0.22 |
| 14-3-3zeta (GeneID 36059) | 1 | 0.4 | 0.35 |
| l(3)80Fj (GeneID 3355040) | 1 | -0.4 | -0.17 |
| l(3)80Fj (GeneID 3355040) | 2 | 0.02 | 0.28 |
| CG42808 (GeneID 10178961) | 1 | -1.32 | -1.15 |
| qua (GeneID 35058) | 1 | 0.18 | 0.45 |
| zfh1 (GeneID 43650) | 1 | -0.32 | -0.09 |
| zfh1 (GeneID 43650) | 2 | -0.76 | -0.57 |
| pcm (GeneID 32935) | 1 | 0.37 | 0.03 |
| pxb (GeneID 41899) | 1 | -0.83 | -0.27 |
| pxb (GeneID 41899) | 2 | 0.05 | 0.26 |
| pxb (GeneID 41899) | 3 | 0.01 | 0.67 |
| pxb (GeneID 41899) | 4 | 0.06 | 0.05 |
| CG32199 (GeneID 40028) | 1 | 0.02 | -0.06 |
| Ttd14 (GeneID 37119) | 1 | 0.3 | 0.19 |
| Ttd14 (GeneID 37119) | 2 | -0.92 | -0.67 |
